Laboratory results from the supplement of paper PMC9578143, “Small-Molecule Ebselen Binds to YTHDF Proteins Interfering with the Recognition of N^6-Methyladenosine-Modified RNAs” (ACS Pharmacology & Translational Science, 2022).
Some of the results follow. Part of the spread comes from offsets between plates or batches.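 Hits were defined as a z-score below −3.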 Residues, ends and D or L forms follow the SMILES beside them.

Target: T1, YTHDF1 YTH domain (aa 365-554) (UniProt Q9BYJ9)
T1 sequence (whole entry): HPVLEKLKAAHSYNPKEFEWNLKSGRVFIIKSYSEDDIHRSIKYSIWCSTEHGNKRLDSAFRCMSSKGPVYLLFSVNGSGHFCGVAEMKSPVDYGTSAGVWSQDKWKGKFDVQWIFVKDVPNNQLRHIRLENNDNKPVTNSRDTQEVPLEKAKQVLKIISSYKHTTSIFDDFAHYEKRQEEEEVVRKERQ
Test: tryptophan fluorescence intensity z-score (mean); higher = higher fluorescence, less quenching (negative = binding / quenching)
Details: 10 µM

Tryptophan fluorescence intensity z-score, inactive:
Oc1c(Cl)cc(Cl)c2cccnc12 (plate: M 7-8) -0.312
O=c1[nH]cnc2nc[nH]c12 (plate: M 17-18) 0.446
C[C@@](Cc1ccc(O)c(O)c1)(NN)C(=O)O (plate: M 13-14) 0.622
Nc1ncnc2c1ncn2[C@@H]1O[C@H](CO)[C@@H](O)[C@@H]1O (plate: M 5-6) -0.1
OC[C@@H](O)[C@@H](O[C@@H]1O[C@H](CO)[C@@H](O)[C@H](O)[C@H]1O)[C@H](O)[C@@H](O)CO (plate: M 19-20) 0.293
COc1cc(O)c2c(=O)cc(C)oc2c1CC=C(C)C (plate: M 13-14) -0.0137
COC1=CC(=O)C(O)=C/C1=C\C=C\c1ccccc1 (plate: M 15-16) -0.241
CC(=O)Nc1c(I)cc(I)c(C(=O)O)c1I (plate: M 9-10) 0.282
CC(=O)O[C@]1(C)CC[C@@]23C[C@H]1C(C)(C)[C@@H]2CC[C@H]3C (plate: M 17-18) 0.0193
Cc1cc2cc3c(C)cc(=O)oc3c(C)c2o1 (plate: M 5-6) -0.187
CC(=O)Nc1nnc(S(N)(=O)=O)s1 (plate: M 1-2) 0.168
CO/N=C(\C(=O)N[C@@H]1C(=O)N2C(C(=O)O)=C(COC(C)=O)CS[C@H]12)c1csc(N)n1 (plate: M 1-2) 0.443
COC(=O)c1c(OC)cc2c(c1C)Oc1c(Cl)c(O)c(Cl)c(C)c1C(=O)O2 (plate: M 15-16) -0.289
COc1cc(CNC(=O)CCCC/C=C/C(C)C)ccc1O (plate: M 7-8) -0.149
COC(=O)[C@H](Cc1ccccc1)NC(=O)[C@@H](N)CC(=O)O (plate: M 9-10) (H-Asp-Phe-OMe) 0.21
O=C(/C=C/c1ccc(O)c(O)c1)O[C@H](Cc1ccc(O)c(O)c1)C(=O)O (plate: M 23-24) -0.292
CCOC(=O)C(Cc1ccc(O)cc1)NC(C)=O (stereo not drawn) (plate: M 23-24) 0.48
CN[C@H]1CC[C@@H](c2ccc(Cl)c(Cl)c2)c2ccccc21 (plate: M 9-10) -0.697
C[C@@H]1CCC[C@H](C)N1NC(=O)c1ccc(Cl)c(S(N)(=O)=O)c1 (plate: M 9-10) -0.0917
Cc1ccc(-c2cc(C(F)(F)F)nn2-c2ccc(S(N)(=O)=O)cc2)cc1 (plate: M 9-10) -0.183
O=C1c2ccccc2C(=O)c2c(O)c(O)cc(O)c21 (plate: M 19-20) 0.336
CC(C)[N+]1(C)[C@@H]2CC[C@H]1C[C@@H](OC(=O)C(CO)c1ccccc1)C2 (stereo partly drawn) (plate: M 3-4) 0.111
COc1cc2ccc(=O)oc2c(O)c1O (plate: M 19-20) -0.235
COC(=O)C(O)c1ccccc1 (stereo not drawn) (plate: M 15-16) 0.106
Nc1ccc(S(=O)(=O)Nc2nccs2)cc1 (plate: M 5-6) 0.0107
CC(C)CC(NC(=O)[C@H](C)N)C(=O)O (mixture of isomers) (plate: M 23-24) 0.535
O=C(O)C1=C(CSc2nnnn2CS(=O)(=O)O)CS[C@@H]2[C@H](NC(=O)[C@H](O)c3ccccc3)C(=O)N12 (plate: M 11-12) 0.174
O=C(Oc1cc(O)cc2c1C[C@@H](OC(=O)c1cc(O)c(O)c(O)c1)[C@@H](c1cc(O)c(O)c(O)c1)O2)c1cc(O)c(O)c(O)c1 (plate: M 21-22) -0.288
CCCCCCOc1ccccc1C(N)=O (plate: M 23-24) 1.22
O[C@H]1[C@H](O)[C@@H](O)C2OC[C@H]1O2 (plate: M 23-24) 0.426
NC[C@H](O)c1ccc(O)c(O)c1 (plate: M 3-4) -0.0468
CCN(CC)CCNC(=O)c1ccc(N)cc1 (plate: M 5-6) 0.0756
CC(=O)O[C@@H]1CC(=O)[C@@]2(C)C(CC(=O)[C@]3(C)C2CC[C@@]2(C)[C@H](c4ccoc4)OC(=O)C4OC423)C1(C)C (stereo partly drawn) (plate: M 13-14) 0.325

Structures from the list above that contain a furan ring, fused or not, in the order listed:
Tryptophan fluorescence intensity z-score, inactive:
Cc1cc2cc3c(C)cc(=O)oc3c(C)c2o1 (plate: M 5-6) -0.187
CC(=O)O[C@@H]1CC(=O)[C@@]2(C)C(CC(=O)[C@]3(C)C2CC[C@@]2(C)[C@H](c4ccoc4)OC(=O)C4OC423)C1(C)C (stereo partly drawn) (plate: M 13-14) 0.325
